Experimental data published in PMC7967072.
Results are given in words; binding and its absence hold for the method and conditions named. Binding seen in cells or lysates may run through a third protein. Some results given as binding are weak or reduced against the parent protein; the word gives no strength.

Amino acid sequences for entries named in this document (tags omitted). A change or cut given only in a name is not applied to a line headed by its entry.
UniProt Q9Y2J8: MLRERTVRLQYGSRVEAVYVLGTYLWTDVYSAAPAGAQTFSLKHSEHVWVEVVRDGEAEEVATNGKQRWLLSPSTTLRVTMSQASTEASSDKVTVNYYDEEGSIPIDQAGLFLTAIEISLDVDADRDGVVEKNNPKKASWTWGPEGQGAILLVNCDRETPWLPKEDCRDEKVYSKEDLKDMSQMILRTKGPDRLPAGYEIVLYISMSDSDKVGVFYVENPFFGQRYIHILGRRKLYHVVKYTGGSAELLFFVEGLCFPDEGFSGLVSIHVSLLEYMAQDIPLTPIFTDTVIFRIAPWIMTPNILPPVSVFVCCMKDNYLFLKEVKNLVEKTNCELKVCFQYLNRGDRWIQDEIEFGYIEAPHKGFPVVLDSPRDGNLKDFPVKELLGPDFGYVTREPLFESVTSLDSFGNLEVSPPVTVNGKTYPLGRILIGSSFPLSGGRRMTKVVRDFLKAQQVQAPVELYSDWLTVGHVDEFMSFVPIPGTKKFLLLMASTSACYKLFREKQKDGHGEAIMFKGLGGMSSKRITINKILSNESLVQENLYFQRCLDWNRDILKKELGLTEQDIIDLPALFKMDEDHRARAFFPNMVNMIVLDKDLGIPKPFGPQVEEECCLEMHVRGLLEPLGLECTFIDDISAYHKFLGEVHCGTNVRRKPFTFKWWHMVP

Columns and labels:
His-tagged MEK1 = His-tagged MEK1 (UniProt Q02750); experiment: co-IP; HEK293 cells co-transfected with Flag-PADI2 and His-MEK1; whole cell lysates precipitated with anti-Flag M2 affinity gel, and reciprocally with anti-His antibody; western blot with anti-His and anti-Flag
[1] = biological target: Flag-tagged peptidylarginine deiminase II (PADI2) (human) (UniProt Q9Y2J8); experiment: as above

Substance	binding (His-tagged MEK1)	binding [1]
Flag-tagged peptidylarginine deiminase II (PADI2) (from UniProt Q9Y2J8-1 1-665) (enzyme)	binds	
His-tagged MEK1 (from UniProt Q02750 1-393) (enzyme)		binds
